Data on one molecule can be found in patent publication US20040265961A1 (published 2004).

No constants are given. Whether binding was seen depends on the method and setting. For some assays here: Binding seen in cells or lysates may run through a third protein. For some assays here: Binding calls can cover weak binding; strength is not graded here. Tags and fused reporters may be left off the sequences shown.

One assay deals with ERK. Put plainly: anti-FLAG immunoprecipitation from KSR-2-FLAG-transfected 293T lysate (about 1 mg protein), Western blot with commercial antibodies.
For another assay, the target named is P.JNK. Put plainly: anti-FLAG co-immunoprecipitation from KSR-2-FLAG-transfected 293T lysate, Western blot.
The next assay concerns the target JNK. Described as above.
A further assay has as its target P.Raf. Described as above.
The next assay deals with P.ERK. The description is as above.

B1: hKSR-2-FLAG (full-length human KSR-2 with the FLAG epitope at its carboxyl terminus) (protein)
chain: MTDEQVCETVEKYGANREECARLNASLSCLRNVHMSGGNLSKQDWTIQWPTTETGKENNPVCPPEPTPWIRTHLSQSPRVPSKCVQHYCHTSPTPGAPVYTHVDRLTVDAYPGLCPPPPLESGHRSLPPSPRQRHAVRTPPRTPNIVTTVTPPGTPPMRKKNKLKPPGTPPPSSRKLIHLIPGFTALHRSKSHEFQLGHRVDEAHTPKAKKKSKPLNLKIHSSVGSCENIPSQQRSPLLSERSLRSFFVGHAPFLPSTPPVHTEANFSANTLSVPRWSPQIPRRDLGNSIKHRFSTKYWMSQTCTVCGKGMLFGLKCKNCKLKCHNKCTKEAPPCHLLIIHRGDPARLVRTESVPCDINNPLRKPPRYSDLHISQTLPKTNKINKDHIPVPYQPDSSSNPSSTTSSTPSSPAPPLPPSATPPSPLHPSPQCTRQQKNFNLPASHYYKYKQQFIFPDVVPVPETPTRAPQVILHPVTSNPILEGNPLLQIEVEPTSENEEVHDEAEESEDDFEEMNLSLLSARSFPRKASQTSIFLQEWDIPFEQLEIGELIGKGRFGQVYHGRWHGEVAIRLIDIERDNEDQLKAFKREVMAYRQTRHENVVLFMGACMSPPHLAIITSLCKGRTLYSVVRDAKIVLDVNKTRQIAQEIVKGMGYLHAKGILHKDLKSKNVFYDNGKVVITDFGLFSISGVLQAGRREDKLRIQNGWLCHLAPEIIRQLSPDTEEDKLPFSKHSDVFALGTIWYELHAREWPFKTQPAEAIIWQMGTGMKPNLSQIGMGKEISDILLFCWAFEQEERPTFTKLMDMLEKLPKRNRRLSHPGHFWKSAELDYKDDDDK
For the molecule B1, the binding entry was “no binding” with ERK; “binds” in the assay with P.JNK; “binds” with JNK; “binds” with P.Raf; “binds” with P.ERK.
